From PubChem BioAssay AID330 (DTP/NCI, 2004)
The list shows only some results of the screen, not a fair sample: it covers a few groups of compounds. Other doses and runs of a compound may be missing. T/C: endpoint of the treated group in % of that of the vehicle group. Some entries give survivors of the animals treated and no T/C: the source holds a T/C of zero for them, seemingly a mark for toxic or unscored doses. Some doses without a T/C left all or most animals alive at the check, yet need not have been tolerated: survival well below the control is almost never listed, so the zero probably covers shortened survival too. Counts of survivors are from the toxicity check (mostly the fifth day) where no day follows; animals may have died later. Schedules are NCI's codes, taken here to give the interval after Q, in days (D) or hours (H), and the number of doses after X. Some complexes appear as separate parts, the way the source draws them; their charges need not add up. For survival time, this PubChem deposit counts one and a half times the control or more as active, and values a quarter to a half above the control carry no call in these data; other NCI protocols may use other cut-offs. Some entries were tested several times; their values stand side by side, smallest first. Some entries show no survivor count and are marked so; the dose need not have been tolerated. Some T/C values carry the count of animals alive at the toxicity check (mostly the fifth day); without a count or a note in brackets, all were alive then.

System: P388 leukemia ip, CD2F1 mice, survival T/C
Experiment: NCI In Vivo Anticancer Drug Screen. Data for tumor model P388 Leukemia (intraperitoneal) in CD2F1 (CDF1) mice
Details: T/C endpoint: median survival time, higher T/C = longer survival
[1] = dose: 2.0 mg/kg/injection, schedule: Q01DX009 (ip), vehicle: saline
[2] = dose: 4.0 mg/kg/injection, schedule: Q01DX009 (ip), vehicle: saline
[3] = dose: 8.0 mg/kg/injection, schedule: Q01DX009 (ip), vehicle: saline
[4] = dose: 50.0 mg/kg/injection, schedule: Q01DX009 (ip), vehicle: saline
[5] = dose: 100.0 mg/kg/injection, schedule: Q01DX009 (ip), vehicle: saline
[6] = dose: 200.0 mg/kg/injection, schedule: Q01DX009 (ip), vehicle: saline
[7] = dose: 100.0 mg/kg/injection, schedule: Q04DX003 (ip), vehicle: Klucel (hydroxypropylcellulose) (HPC)
[8] = dose: 200.0 mg/kg/injection, schedule: Q01DX009 (ip), vehicle: Klucel (hydroxypropylcellulose) (HPC)
[9] = dose: 50.0 mg/kg/injection, schedule: Q01DX005 (ip), vehicle: saline with Tween-80
[10] = dose: 100.0 mg/kg/injection, schedule: Q01DX005 (ip), vehicle: saline with Tween-80
[11] = dose: 200.0 mg/kg/injection, schedule: Q01DX005 (ip), vehicle: saline with Tween-80

NC(Cc1ccc(N(CCCl)CCCl)c(Cl)c1)C(=O)O (stereo not drawn)
T/C (dose: 1.25 mg/kg/injection, schedule: Q04DX003 (ip), vehicle: saline with Tween-80): 190 % of control
T/C [1]: 250 % of control
T/C (dose: 2.5 mg/kg/injection, schedule: Q04DX003 (ip), vehicle: saline with Tween-80): 222 % of control
T/C (dose: 3.3 mg/kg/injection, schedule: Q04DX003 (ip), vehicle: saline sonified): 272 % of control
survivor count [2]: 6 of 6
T/C (dose: 5.0 mg/kg/injection, schedule: Q04DX003 (ip), vehicle: saline sonified): 272 % of control
T/C (dose: 5.0 mg/kg/injection, schedule: Q04DX003 (ip), vehicle: saline with Tween-80): 272 % of control
T/C (dose: 7.5 mg/kg/injection, schedule: Q04DX003 (ip), vehicle: saline sonified): 118 % of control
survivor count [3]: 5 of 6
survivor count (dose: 10.0 mg/kg/injection, schedule: Q04DX003 (ip), vehicle: saline with Tween-80): 5 of 6
survivor count (dose: 20.0 mg/kg/injection, schedule: Q04DX003 (ip), vehicle: saline with Tween-80): 3 of 6
survivor count (dose: 40.0 mg/kg/injection, schedule: Q04DX003 (ip), vehicle: saline with Tween-80): 2 of 6

C1CC2COP(O1)O2 (stereo not drawn)
T/C [4]: 101 % of control
T/C [5]: 100 % of control
T/C [6]: 94 % of control

CCOP(=O)(O)CC
T/C (dose: 100.0 mg/kg/injection, schedule: Q01DX001 (ip), vehicle: Klucel (hydroxypropylcellulose) (HPC)): 97 % of control [survivor count not shown]
T/C (dose: 200.0 mg/kg/injection, schedule: Q01DX001 (ip), vehicle: Klucel (hydroxypropylcellulose) (HPC)): 91 % of control [survivor count not shown]
T/C (dose: 400.0 mg/kg/injection, schedule: Q01DX001 (ip), vehicle: Klucel (hydroxypropylcellulose) (HPC)): 91 % of control [survivor count not shown]

CN1CC2CC(C1)CN(C)C2.F[P-](F)(F)(F)(F)F
T/C (dose: 50.0 mg/kg/injection, schedule: Q01DX009 (ip), vehicle: saline with Tween-80): 104 % of control
T/C (dose: 100.0 mg/kg/injection, schedule: Q01DX009 (ip), vehicle: saline with Tween-80): 109 % of control
survivor count (dose: 200.0 mg/kg/injection, schedule: Q01DX009 (ip), vehicle: saline with Tween-80): 4 of 6

N#C/C(=C\c1ccc(N(CCBr)CCBr)cc1)C(N)=O
T/C (dose: 0.5 mg/kg/injection, schedule: Q01DX009 (ip), vehicle: saline): 133 % of control
T/C (dose: 1.0 mg/kg/injection, schedule: Q01DX009 (ip), vehicle: saline): 150 % of control
T/C [1]: 164 % of control
T/C [2]: 198 % of control
T/C [3]: 171 % of control

COP1OCC(C(C)(C)C)CN1c1ccccc1 (stereo not drawn)
T/C [7]: 100 % of control
T/C (dose: 200.0 mg/kg/injection, schedule: Q04DX003 (ip), vehicle: Klucel (hydroxypropylcellulose) (HPC)): 101 % of control
T/C (dose: 400.0 mg/kg/injection, schedule: Q04DX003 (ip), vehicle: Klucel (hydroxypropylcellulose) (HPC)): 98 % of control

CCc1nc([N+](=O)[O-])cn1P(=O)(Oc1ccccc1)OC1CC(C)(C)N(O)C(C)(C)C1 (stereo not drawn)
T/C (dose: 13.0 mg/kg/injection, schedule: Q01DX009 (ip), vehicle: saline + alcohol): 114 % of control
T/C (dose: 25.0 mg/kg/injection, schedule: Q01DX009 (ip), vehicle: saline + alcohol): 102 % of control
T/C (dose: 50.0 mg/kg/injection, schedule: Q01DX009 (ip), vehicle: saline + alcohol): 118 % of control

NNc1nc(NN)nc(NN)n1
T/C (dose: 25.0 mg/kg/injection, schedule: Q04DX003 (ip), vehicle: Klucel (hydroxypropylcellulose) (HPC)): 95 and 101 % of control
T/C (dose: 50.0 mg/kg/injection, schedule: Q04DX003 (ip), vehicle: Klucel (hydroxypropylcellulose) (HPC)): 93 and 129 % of control
T/C [7]: 93 and 101 % of control

O=[N+]([O-])c1ccc(N/N=C2/CCCC/C(=N\Nc3ccc([N+](=O)[O-])cc3[N+](=O)[O-])CS(=O)(=O)C2)c([N+](=O)[O-])c1
T/C (dose: 25.0 mg/kg/injection, schedule: Q01DX005 (ip), vehicle: Klucel + Tween-80): 99 % of control
T/C (dose: 50.0 mg/kg/injection, schedule: Q01DX005 (ip), vehicle: Klucel + Tween-80): 97 % of control
T/C (dose: 100.0 mg/kg/injection, schedule: Q01DX005 (ip), vehicle: Klucel + Tween-80): 96 % of control

CCC(COB(OCC(CC)[N+](=O)[O-])OCC(CC)[N+](=O)[O-])[N+](=O)[O-] (stereo not drawn)
T/C [4]: 96 % of control
T/C [5]: 97 % of control [5 of 6 alive]
T/C [6]: 88 % of control

CCc1cccc2ccc(N(CCBr)CCBr)cc12
T/C (dose: 25.0 mg/kg/injection, schedule: Q01DX009 (ip), vehicle: Klucel (hydroxypropylcellulose) (HPC)): 132 % of control
T/C (dose: 50.0 mg/kg/injection, schedule: Q01DX009 (ip), vehicle: Klucel (hydroxypropylcellulose) (HPC)): 144 and 157 % of control
T/C (dose: 100.0 mg/kg/injection, schedule: Q01DX009 (ip), vehicle: Klucel (hydroxypropylcellulose) (HPC)): 86 and 153 % of control
T/C [8]: 134 % of control
survivor count [8]: 5 of 6
survivor count (dose: 400.0 mg/kg/injection, schedule: Q01DX009 (ip), vehicle: Klucel (hydroxypropylcellulose) (HPC)): 6 of 6

COc1ccccc1N1CC=C(c2ccccc2)OP1(=O)Cl (stereo not drawn)
T/C (dose: 25.0 mg/kg/injection, schedule: Q01DX005 (ip), vehicle: Klucel (hydroxypropylcellulose) (HPC)): 112 % of control
T/C (dose: 50.0 mg/kg/injection, schedule: Q01DX005 (ip), vehicle: Klucel (hydroxypropylcellulose) (HPC)): 102 and 107 % of control
T/C (dose: 100.0 mg/kg/injection, schedule: Q01DX005 (ip), vehicle: Klucel (hydroxypropylcellulose) (HPC)): 107 and 125 % of control
T/C (dose: 200.0 mg/kg/injection, schedule: Q01DX005 (ip), vehicle: Klucel (hydroxypropylcellulose) (HPC)): 122 and 126 % of control

CC1CC[P+](C)(c2ccccc2)c2ccccc21.F[P-](F)(F)(F)(F)F (stereo not drawn)
T/C (dose: 0.78 mg/kg/injection, schedule: Q01DX009 (ip), vehicle: saline): 93 % of control
T/C (dose: 1.56 mg/kg/injection, schedule: Q01DX009 (ip), vehicle: saline): 103 % of control
T/C (dose: 3.13 mg/kg/injection, schedule: Q01DX009 (ip), vehicle: saline): 103 % of control

CN1CC=CCC1c1ccccc1.O=[N+]([O-])c1cc([N+](=O)[O-])c(O)c([N+](=O)[O-])c1
T/C [9]: 108 % of control [5 of 6 alive]
T/C [10]: 106 % of control [5 of 6 alive]
survivor count [11]: 0 of 6

O=c1ccc2cc3ccoc3c(OP(=O)(Cl)N(CCCl)CCCl)c2o1 (stereo not drawn)
T/C (dose: 25.0 mg/kg/injection, schedule: Q01DX005 (ip), vehicle: saline with Tween-80): 109 % of control
T/C [9]: 112 and 124 % of control
T/C [10]: 119 and 128 % of control
T/C [11]: 123 % of control
survivor count [11]: 5 of 5

CC(C)OP(C)(=O)O.[Tl]
T/C (dose: 25.0 mg/kg/injection, schedule: Q04DX002 (ip), vehicle: saline with Tween-80): 110 % of control [survivor count not shown]
T/C (dose: 50.0 mg/kg/injection, schedule: Q04DX002 (ip), vehicle: saline with Tween-80): 115 % of control [survivor count not shown]

COP(C)(=O)O.CSC(=N)N
T/C [4]: 100 % of control [survivor count not shown]
T/C [5]: 99 % of control [survivor count not shown]
T/C [6]: 101 % of control [survivor count not shown]

O=P(S)(SSP(=O)(S)c1ccccc1)c1ccccc1.[Ti].[c-]1[c-][c-][cH-][c-]1.[c-]1[c-][c-][cH-][c-]1 (stereo not drawn)
T/C [9]: 100 % of control
T/C [10]: 100 % of control
T/C [11]: 96 % of control

CP1(OCC(F)(F)F)=NP(OCC(F)(F)F)(OCC(F)(F)F)=NP(OCC(F)(F)F)(OCC(F)(F)F)=N1 (stereo not drawn)
T/C (dose: 60.0 mg/kg/injection, schedule: Q01DX005 (ip), vehicle: Klucel (hydroxypropylcellulose) (HPC)): 96 % of control
T/C (dose: 120.0 mg/kg/injection, schedule: Q01DX005 (ip), vehicle: Klucel (hydroxypropylcellulose) (HPC)): 100 % of control
T/C (dose: 240.0 mg/kg/injection, schedule: Q01DX005 (ip), vehicle: Klucel (hydroxypropylcellulose) (HPC)): 96 % of control
